Assay results from PubChem BioAssay AID504327 (National Center for Advancing Translational Sciences (NCATS), 2011).
“And” between values parts separate entries of the source, which are not always exact repeats. Equal values may be shown once. About 820 (0.21%) of roughly 390,000 compounds were called active. The shares of active, inactive and inconclusive entries below differ from those in the screen. Calls follow the shape of the dose curve; as a rule, active = well fitted inhibition curve with a large enough effect; inconclusive = small, poorly fitted or top-dose-only effect, or another doubt; inactive = no such curve, though single readings can be large or run the other way. Potencies of inconclusive entries are doubtful fits and often do not repeat.

Amino acid sequences for entries named in this document (tags omitted).
UniProt Q92830, whole entry, looked up: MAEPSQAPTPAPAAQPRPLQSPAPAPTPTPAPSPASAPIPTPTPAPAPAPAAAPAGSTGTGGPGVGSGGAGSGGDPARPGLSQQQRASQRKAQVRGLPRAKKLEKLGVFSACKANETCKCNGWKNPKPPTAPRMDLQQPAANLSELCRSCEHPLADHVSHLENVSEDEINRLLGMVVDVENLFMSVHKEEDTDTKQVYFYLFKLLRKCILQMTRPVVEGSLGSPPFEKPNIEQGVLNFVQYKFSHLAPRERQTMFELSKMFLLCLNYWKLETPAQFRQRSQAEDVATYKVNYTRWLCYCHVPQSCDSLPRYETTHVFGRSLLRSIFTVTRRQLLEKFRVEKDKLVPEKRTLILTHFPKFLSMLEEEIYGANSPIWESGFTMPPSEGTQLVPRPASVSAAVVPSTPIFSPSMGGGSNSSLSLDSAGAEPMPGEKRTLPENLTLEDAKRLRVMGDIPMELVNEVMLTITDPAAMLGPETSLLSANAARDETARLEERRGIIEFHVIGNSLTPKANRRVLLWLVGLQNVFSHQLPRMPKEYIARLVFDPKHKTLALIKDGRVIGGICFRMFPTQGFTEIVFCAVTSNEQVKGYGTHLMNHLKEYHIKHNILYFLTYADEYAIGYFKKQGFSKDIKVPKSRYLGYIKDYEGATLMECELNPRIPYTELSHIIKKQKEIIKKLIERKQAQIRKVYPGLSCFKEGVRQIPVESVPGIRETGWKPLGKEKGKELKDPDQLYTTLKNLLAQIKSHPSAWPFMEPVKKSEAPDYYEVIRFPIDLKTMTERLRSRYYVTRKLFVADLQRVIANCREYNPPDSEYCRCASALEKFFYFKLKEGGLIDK

molecular target: Histone acetyltransferase KAT2A (Homo sapiens) (UniProt Q92830); experiment: qHTS Assay for Inhibitors of GCN5L2; settings: GCN5L2 HAT assay, ThioGlo1 CoA-SH fluorescence; activity change, negative = inhibition: at 58.9 µM (top of the series) unless noted
Summary of the method: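 GCN5L2 (20nM final) in 50mM HEPES, 0.1mM EDTA pH 7.5, 0.01% Tween-20 was preincubated 15 min at room temperature with compound, then given ThioGlo1 (50uM), H3(1-25) peptide (75uM) and acetyl-CoA (70uM); CoA-thiol fluorescence (Ex340/Em540) was read at 0 and 20 min.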
% is scaled to controls: 0 for no effect and ±100 for the full control effect; potency is read from the fitted curve at half-maximal effect.

| SMILES | Potency | activity change, negative = inhibition |
| --- | --- | --- |
| Cc1ccc(CN2C3=NCCCN3c3ccccc32)cc1 | inactive |  |
| COc1ccc(-c2c(C)c3ccc(O)c(CN4CCCC4)c3oc2=O)cc1OC | inconclusive: 25.1 µM [inhibitor, single point] |  |
| COC(=O)c1cc(CN2CCN(c3ccccc3)CC2)ccc1O | inactive |  |
| O=C(O)c1ccc2c(c1)C(=O)N([C@H](Cc1ccccc1)C(=O)O)C2=O | inactive |  |
| O=C(c1ccccc1)N(Nc1ccccc1)c1ccccc1 | inactive |  |
| COCCN(C(=O)c1cc2c(s1)CCC2)c1c(N)n(CC(C)C)c(=O)[nH]c1=O | inconclusive: 39.8 µM [inhibitor, single point] |  |
| Cc1ccc(S(=O)(=O)N2[C@@H](c3cccc(Cl)c3)C(C(=O)O)=CC[C@H]2c2ccc(C(C)C)cc2)cc1 | inconclusive: 31.6 µM [inhibitor, single point] |  |
| COc1ccc(-c2nc3cnc(N4CCN(C)CC4)nc3n(CCC#N)c2=O)cc1 | inconclusive: 25.1 µM [inhibitor, single point] |  |
| O=C(CSc1nc2ccccc2nc1N1CCOCC1)Nc1ccccc1F | inconclusive: 39.8 µM [inhibitor, single point] |  |
| O=C(CC1C(=O)NCCN1Cc1ccc(-c2ccccc2)cc1)NCCc1ccccn1 (stereo unspecified) | inconclusive: 0.891 µM [inhibitor, single point] |  |
| Cc1nc2ccc(N=NN(C)C)cc2[nH]1 | inconclusive: 39.8 µM [inhibitor, single point] |  |
| Cc1cccc(C2=NN(c3ccc(Br)cc3)[C@@H](C(=O)N3CCOC3=O)[C@@H]2c2ccccc2)c1 | inconclusive: 10 µM [inhibitor, partial curve] and inconclusive: 39.8 µM [inhibitor, single point] |  |
| Cc1noc(C)c1Cc1ccc(O)cc1 | inconclusive: 0.126 µM [inhibitor, full curve, poor fit] |  |
| COc1ccc(N(CC(=O)N2CCN(c3ccccc3)CC2)S(=O)(=O)c2ccc(C)cc2)cc1 | inconclusive: 0.891 µM [inhibitor, full curve, poor fit] |  |
| CCN(CC)c1ccc(C(=C2C=CC(=[N+](CC)Cc3cccc(S(=O)(=O)[O-])c3)C=C2)c2ccc(N(CC)Cc3cccc(S(=O)(=O)O)c3)cc2)cc1 | active: 10 µM |  |
| CCc1cccc(C)c1NC(=O)Cn1nnc(-c2nc(-c3ccccc3F)no2)c1N | inconclusive: 17.8 µM [inhibitor, partial curve] |  |
| CC(C)C12CN3CC(C(C)C)(CN(C1)C3c1ccc([N+](=O)[O-])o1)C2=O (stereo unspecified) | inactive |  |
| Cn1c(=O)[nH]c(=O)c2c1nc(N1CCOCC1)n2CC(O)COc1ccc2ccccc2c1 (stereo unspecified) | inconclusive: 3.98 µM [inhibitor, full curve, poor fit] |  |
| COc1cc(/C=C2/SC(=S)NC2=O)ccc1OS(=O)(=O)c1ccc(C)cc1 | inconclusive: 31.6 µM [inhibitor, single point] |  |
| CCn1cc(C(=O)NCCCOC)c(=O)c2cc(S(=O)(=O)N3CCc4ccccc4C3)ccc21 | inactive |  |
| CCOc1ccc(C(=O)NC(=S)Nc2ccccc2N2CCOCC2)cc1Br | inactive |  |
| CC[C@H](C)[C@H](NC(=O)CNC(=O)COc1cc2c(c3oc(=O)cc(C)c13)CCC(C)(C)O2)C(=O)O | active: 22.4 µM |  |

Five entries from above, ordered by formula weight, smallest number first.

| SMILES | Potency | activity change, negative = inhibition |
| --- | --- | --- |
| Cc1nc2ccc(N=NN(C)C)cc2[nH]1 | inconclusive: 39.8 µM [inhibitor, single point] |  |
| COC(=O)c1cc(CN2CCN(c3ccccc3)CC2)ccc1O | inactive |  |
| COCCN(C(=O)c1cc2c(s1)CCC2)c1c(N)n(CC(C)C)c(=O)[nH]c1=O | inconclusive: 39.8 µM [inhibitor, single point] |  |
| COc1ccc(N(CC(=O)N2CCN(c3ccccc3)CC2)S(=O)(=O)c2ccc(C)cc2)cc1 | inconclusive: 0.891 µM [inhibitor, full curve, poor fit] |  |
| CCN(CC)c1ccc(C(=C2C=CC(=[N+](CC)Cc3cccc(S(=O)(=O)[O-])c3)C=C2)c2ccc(N(CC)Cc3cccc(S(=O)(=O)O)c3)cc2)cc1 | active: 10 µM |  |

Remaining list, next part.

| SMILES | Potency | activity change, negative = inhibition |
| --- | --- | --- |
| COc1ccc(-c2cc3ccc(O)c(CN4CCCC4)c3oc2=O)cc1 | inconclusive: 15.8 µM [inhibitor, partial curve] |  |
| COc1ccc2cc(-c3cc(C(=O)O)c4ccccc4n3)ccc2c1 | inconclusive: 17.8 µM [inhibitor, partial curve] |  |
| O=C(C1CCCN(Cc2cccnc2)C1)N1CCCCC1 (stereo unspecified) | inactive |  |
| c1ccc(OCCN2C3=NCCN3c3ccccc32)cc1 | inactive |  |
| CCOc1ccc(CCNC(=O)c2cc3sc(Cl)cc3n2C)cc1OCC | inconclusive: 25.1 µM [inhibitor, single point] |  |
| O=C(O)/C=C/c1cn(-c2ccccc2)nc1-c1ccc(-c2ccc([N+](=O)[O-])cc2)o1 | inconclusive: 15.8 µM [inhibitor, partial curve, poor fit] |  |
| COc1cccc(-c2nc(N(C)C)c3ccccc3n2)c1 | inconclusive: 28.2 µM [inhibitor, single point] |  |
| CC(C)=CC(O)C/C(C)=C/COc1ccc2ccc(=O)oc2c1 (stereo unspecified) | inconclusive: 39.8 µM [inhibitor, single point] |  |
| COc1ccc(N2CCN(C(=O)c3oc4ccccc4c3NC(=O)CCc3cc(OC)no3)CC2)cc1 | inactive |  |
| Cc1ccc(C2=NS(=O)(=O)N(C)C(C(=O)NCc3ccccn3)=C2)cc1 | inconclusive: 39.8 µM [inhibitor, single point] |  |
| COc1cc(NS(=O)(=O)c2ccc(NC(=S)NC(=O)/C=C/c3ccc(F)cc3)cc2)ncn1 | inconclusive: 35.5 µM [inhibitor, single point] |  |
| Cc1cc(C)c(OCCOCCN2CCN(C)CC2)c(Cl)c1 | inactive |  |
| Nc1nnc(-c2cc3ccccc3oc2=O)s1 | inconclusive: 3.16 µM [inhibitor, single point] |  |
| CCC(=O)NC1Cc2ccccc2C(c2ccccc2)C1 (stereo unspecified) | inactive |  |
| N#Cc1nc(-c2ccco2)oc1NCc1ccccc1Cl | inconclusive: 8.91 µM [inhibitor, single point] |  |
| O=C(O)/C(=C\c1ccc(F)cc1)c1ccc(-c2ccccc2)cc1 |  | inconclusive: -32.5% [inhibitor] |
| CC1(C(=O)CSc2ncn[nH]2)CCC(=O)O1 (stereo unspecified) | inconclusive: 31.6 µM [inhibitor, single point] |  |
| O=C(CS(=O)(=O)Cc1ccccc1)NCCc1ccc(F)cc1 | inconclusive: 0.112 µM [inhibitor, full curve, poor fit] |  |
| CCOc1ccccc1CN1CCCC(CNS(=O)(=O)c2ccc(OC)cc2)C1 (stereo unspecified) | inconclusive: 7.08 µM [inhibitor, single point] |  |
| CC(C)(O)C#Cc1ccc(C(=O)N2CCC(C(N)=O)(N3CCCCC3)CC2)o1 | inconclusive: 7.08 µM [inhibitor, single point] |  |
| Cc1ccc2cc(C#N)c(N3CCCN(S(=O)(=O)c4ccc(F)cc4)CC3)nc2c1 | inactive |  |
| Cn1nnnc1Sc1ncnc2scc(-c3ccccc3Br)c12 | inconclusive: 25.1 µM [inhibitor, partial curve] |  |

| SMILES | Potency | activity change, negative = inhibition |
| --- | --- | --- |
| CC1(C)Cc2c(sc(NC(=O)COc3ccc(Cl)cc3Cl)c2C(N)=O)C(C)(C)N1 | inactive |  |
| O=C(O)COc1ccccc1/C=N/Nc1ccc(S(=O)(=O)Nc2ccc(Cl)cc2)cc1[N+](=O)[O-] | inconclusive: 39.8 µM [inhibitor, single point] |  |
| O=C(O)C1CSC(c2ccco2)N1 (stereo unspecified) | inconclusive: 25.1 µM [inhibitor, single point] |  |
| Cc1ccc(OCC(=O)N2CCN(c3ccc([N+](=O)[O-])c(N4CCOCC4)c3)CC2)cc1 | inconclusive: 6.31 µM [inhibitor, single point] |  |
| O=C(CCCN1C(=O)c2cccc3cccc(c23)C1=O)N1CCc2ccccc2C1 | inconclusive: 11.2 µM [inhibitor, partial curve] |  |
| COc1ccc(CN2C(=O)C(Cc3ccccc3)Nc3ncnc(N4CCCCC4)c32)cc1 (stereo unspecified) | inconclusive: 3.98 µM [inhibitor, single point] |  |
| COc1ccc2cc(/C=N/NC(=O)CSCc3ccc([N+](=O)[O-])cc3)c(Cl)nc2c1 | inconclusive: 22.4 µM [inhibitor, partial curve] |  |
| CCN(Cc1ccccc1)C(=O)Cn1c(=O)n(-c2ccccc2)c(=O)c2c1c1cc(C)ccc1n2C | inactive |  |
| O=C(N/N=C/c1cccc(F)c1)c1cc(-c2ccco2)nc2ccccc12 | inconclusive: 11.2 µM [inhibitor, partial curve] |  |
| COc1ccc(CN(C(=S)Nc2ccccc2)C2CC(=O)N(c3ccc(Cl)cc3)C2=O)cc1 (stereo unspecified) | inactive |  |
| COc1ccccc1NC(=O)c1cc(Cl)nc2ccccc12 | inconclusive: 0.1 µM [inhibitor, full curve, poor fit] |  |
| N[C@@H](Cc1cc(I)c(Oc2ccc(O)c(I)c2)c(I)c1)C(=O)O | inconclusive: 22.4 µM [inhibitor, partial curve] |  |
| O=c1c2cccc(Cl)c2nc2n1Cc1ccccc1-2 | inconclusive: 39.8 µM [inhibitor, single point] |  |
| CC1=C(C(N)=O)C(c2ccccc2)n2nc(-c3cccs3)nc2N1 (stereo unspecified) | inconclusive: 7.08 µM [inhibitor, single point] |  |
| Cc1cc(C)c2c(c1)NC(C(=O)O)C1CC=CC21 (stereo unspecified) | active: 28.2 µM |  |
| CCc1ccc2[nH]c(C(=O)Nc3ccc(F)cc3Br)cc2c1 | inactive |  |
| COc1cccc(-c2cc(C(=O)N3C(C)CCCC3C)no2)c1 (stereo unspecified) |  | inconclusive: -94.4% [inhibitor] [at 0.501 µM] |
| Cc1c(Cc2ccccc2)c(=O)oc2c(CN(C)C)c(O)c(Cl)cc12 | inconclusive: 17.8 µM [inhibitor, partial curve] |  |
| COc1cc(/C=N/NC(=O)CSCc2ccc([N+](=O)[O-])cc2)cc(OC)c1OC | inconclusive: 28.2 µM [inhibitor, single point] |  |
| COc1ccc(-c2nc(=S)[nH][nH]2)cc1OC | inconclusive: 35.5 µM [inhibitor, single point] |  |
| CCOC(=O)/C=C1\SCC(=O)N1Cc1nnc(-c2ccccc2Br)o1 | inconclusive: 20 µM [inhibitor, partial curve, poor fit] |  |
| COc1ccc(N2CSC3=C(C#N)C(c4cccc(OC)c4OC)CC(=O)N3C2)cc1 (stereo unspecified) | inconclusive: 28.2 µM [inhibitor, single point] |  |
